# Reference: patent US20220227815A1 (University of Kansas, priority 2019, published 2022)
# Test: general procedure: Fmoc solid-phase peptide synthesis; amide resin (HAV6, ADTC5 precursors); Fmoc-Val-Wang resin (N-to-C cyclic peptide precursors); HATU, DIEA
# Details: whole synthesis, analytical HPLC, Luna C18 column
substance,measurement,value
"cyclo(1,7)acetyl-CDTPPVC-NH2",final HPLC purity,>95% pure
